In patent US8354398B2, “Substituted isoxazole compounds” (Bristol-Myers Squibb Company, priority 2009, dated 2013):
Where a name gives a salt, the structure may show the parent alone. Some results were stated once for a whole list of compounds, not compound by compound.

Sequences of proteins named here, by UniProt entry; tags and fusion partners are left off.
UniProt P21453, whole entry: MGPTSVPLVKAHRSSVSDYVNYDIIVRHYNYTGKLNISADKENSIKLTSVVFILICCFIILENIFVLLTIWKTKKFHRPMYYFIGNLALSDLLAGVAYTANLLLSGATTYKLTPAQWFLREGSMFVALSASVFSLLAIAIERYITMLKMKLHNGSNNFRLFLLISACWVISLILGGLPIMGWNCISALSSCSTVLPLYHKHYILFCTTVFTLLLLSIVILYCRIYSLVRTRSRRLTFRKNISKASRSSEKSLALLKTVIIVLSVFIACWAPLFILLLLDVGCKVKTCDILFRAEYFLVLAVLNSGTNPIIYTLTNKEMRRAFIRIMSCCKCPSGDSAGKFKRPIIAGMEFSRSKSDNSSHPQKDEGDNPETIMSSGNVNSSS

What follows are compounds tested against S1P1 (Homo sapiens, UniProt P21453) (assay: Method A: Receptor [35S] GTPγS Binding Assay, membranes from S1P1/CHO cells). Details: GTPγS assays, Tables B and C.
Type: biochemical
Parameters: expressed in transfected cells; host or cells: S1P1/CHO cells
Procedure: Compounds were loaded in a 384 Falcon v-bottom plate (0.5 μl/well in a 3-fold dilution). Membranes prepared from S1P1/CHO cells or EDG3-Ga15-bla HEK293T cells were added to the compound plate (40 μl/well, final protein […]) with MULTIDROP®. [^35S]GTP (1250 Ci/mmol, Perkin Elmer) was diluted in assay buffer: 20 mM HEPES, pH7.5, 10 mM MgCl2, 150 mM NaCl, 1 mM EGTA, 1 mM DTT, 10 μM GDP, 0.1% fatty acid free BSA, and 10 mg/ml Saponin to 0.4 nM. 40 μl of the [^35S] GTP solution was added to the compound plate with a final concentration of 0.2 nM. The reaction was kept at room temperature for 45 min. At the end of incubation, all the mixtures in the compound plate were transferred to a 384 well FB filter plates via GPCR robot system. The filter plate was washed with water 4 times by using the modified manifold Embla plate washer and dried at 60° C. for 45 min. 30 μl of MicroScint 20 scintillation fluid was added to each well for counting at Packard TOPCOUNT®. EC50 is defined as the agonist concentration that corresponds to 50% of the Ymax (maximal response) obtained for each individual compound tested.
Compounds of the present invention and Comparative Compound A were tested in the Receptor [^35S] GTPγS Binding Assays (Method A) and Receptor [35S] In some instances, the value is an average of multiple experiments where N is the number of experiments conducted that provided satisfactory dose response curves. When more than one batch of an example was tested, the value presented is from a batch which allowed a comparison of GTPγS S1P1 and GTPγS S1P3 in which the most number of experiments were performed. Preferably, the same batch was examined in Method A and Method B. Data was not averaged across different batches of an example compound.

Compound	agonists of S1P1, selectivity over S1P3 (in words)
O=C(O)C1CN(Cc2ccc(-c3noc(-c4onc(-c5ccccc5)c4C(F)(F)F)n3)cc2)C1 [Example 1, 1-(4-(5-(3-Phenyl-4-(trifluoromethyl)isoxazol-5-yl)-1,2,4-oxadiazol-3-yl)benzyl)azetidine-3-carboxylic acid]	selective over S1P3
O=C(O)C1CN(Cc2ccc(-c3noc(-c4noc(-c5ccccc5)c4C(F)(F)F)n3)cc2)C1 [Example 2, 1-(4-(5-(5-Phenyl-4-(trifluoromethyl)isoxazol-3-yl)-1,2,4-oxadiazol-3-yl)benzyl)azetidine-3-carboxylic acid]	selective over S1P3
CCCCc1c(-c2nc(-c3ccc(CN4CC(C(=O)O)C4)cc3)no2)noc1-c1ccccc1 [Example 3, 1-(4-(5-(4-Butyl-5-phenylisoxazol-3-yl)-1,2,4-oxadiazol-3-yl)benzyl)-azetidine-3-carboxylic acid]	selective over S1P3
CC(C)Cc1c(-c2nc(-c3ccc(CN4CC(C(=O)O)C4)cc3)no2)noc1-c1ccccc1 [Example 4, 1-(4-(5-(4-Isobutyl-5-phenylisoxazol-3-yl)-1,2,4-oxadiazol-3-yl)benzyl)-azetidine-3-carboxylic acid]	selective over S1P3
CCc1c(-c2nc(-c3ccc(CN4CC(C(=O)O)C4)c(Br)c3)no2)noc1-c1ccccc1 [Example 5, 1-(2-Bromo-4-(5-(4-ethyl-5-phenylisoxazol-3-yl)-1,2,4-oxadiazol-3-yl)benzyl)azetidine-3-carboxylic acid]	selective over S1P3
O=C(O)C1CN(Cc2ccc(-c3noc(-c4noc(-c5ccccc5)c4C4CC4)n3)cc2)C1 [Example 6, 1-(4-(5-(4-Cyclopropyl-5-phenylisoxazol-3-yl)-1,2,4-oxadiazol-3-yl)benzyl)-azetidine-3-carboxylic acid, 2,2,2-trifluoroacetic acid salt]	selective over S1P3
CC(C)(C)c1c(-c2nc(-c3ccc(CN4CC(C(=O)O)C4)cc3)no2)noc1-c1ccccc1 [Example 7, 1-(4-(5-(4-tert-Butyl-5-phenylisoxazol-3-yl)-1,2,4-oxadiazol-3-yl)benzyl)-azetidine-3-carboxylic acid, 2-2-2-trifluoroacetic acid salt]	selective over S1P3
O=C(O)C1CN(Cc2ccc(-c3noc(-c4noc(-c5ccccc5)c4CCC(F)(F)F)n3)cc2)C1 [Example 8, 1-(4-(5-(5-Phenyl-4-(3,3,3-trifluoropropyl)isoxazol-3-yl)-1,2,4-oxadiazol-3-yl)benzyl)azetidine-3-carboxylic acid, 2,2,2-trifluoroacetic acid salt]	selective over S1P3
CC(F)(F)c1c(-c2nc(-c3ccc(CN4CC(C(=O)O)C4)cc3)no2)noc1-c1ccccc1 [Example 9, 1-(4-(5-(4-(1,1-Difluoroethyl)-5-phenylisoxazol-3-yl)-1,2,4-oxadiazol-3-yl)benzyl)azetidine-3-carboxylic acid, 2,2,2-trifluoroacetic acid salt]	selective over S1P3
CCC(F)(F)c1c(-c2nc(-c3ccc(CN4CC(C(=O)O)C4)cc3)no2)noc1-c1ccccc1 [Example 10, 1-(4-(5-(4-(1,1-Difluoropropyl)-5-phenylisoxazol-3-yl)-1,2,4-oxadiazol-3-yl)benzyl)azetidine-3-carboxylic acid, trifluoroacetic acid salt]	selective over S1P3
CCCc1c(-c2ccccc2)noc1-c1nc(-c2ccc(CN3CC(C(=O)O)C3)cc2)no1 [Example 11, 1-(4-(5-(3-Phenyl-4-propylisoxazol-5-yl)-1,2,4-oxadiazol-3-yl)benzyl)azetidine-3-carboxylic acid, 2,2,2-trifluoroacetic acid salt]	selective over S1P3
O=C(O)C1CN(Cc2ccc(-c3noc(-c4onc(-c5ccccc5)c4C(F)F)n3)cc2)C1 [Example 12, 1-(4-(5-(4-(Difluoromethyl)-3-phenylisoxazol-5-yl)-1,2,4-oxadiazol-3-yl)benzyl)azetidine-3-carboxylic acid, 2,2,2-trifluoroacetic acid salt]	selective over S1P3
COC(=O)c1c(-c2ccccc2)noc1-c1nc(-c2ccc(CN3CC(C(=O)O)C3)cc2)no1 [Example 13, 1-(4-(5-(4-(Methoxycarbonyl)-3-phenylisoxazol-5-yl)-1,2,4-oxadiazol-3-yl)benzyl)azetidine-3-carboxylic acid, 2,2,2-trifluoroacetic acid salt]	selective over S1P3
CNC(=O)c1c(-c2ccccc2)noc1-c1nc(-c2ccc(CN3CC(C(=O)O)C3)cc2)no1 [Example 14, 1-(4-(5-(4-(Methylcarbamoyl)-3-phenylisoxazol-5-yl)-1,2,4-oxadiazol-3-yl)benzyl)azetidine-3-carboxylic acid, 2,2,2-trifluoroacetic acid salt]	selective over S1P3
O=C(NCC(F)(F)F)c1c(-c2ccccc2)noc1-c1nc(-c2ccc(CN3CC(C(=O)O)C3)cc2)no1 [Example 15, 1-(4-(5-(3-Phenyl-4-(2,2,2-trifluoroethylcarbamoyl)isoxazol-5-yl)-1,2,4-oxadiazol-3-yl)benzyl)azetidine-3-carboxylic acid, 2,2,2-trifluoroacetic acid salt]	selective over S1P3
O=C(O)c1c(-c2ccccc2)noc1-c1nc(-c2ccc(CN3CC(C(=O)O)C3)cc2)no1 [Example 16, 5-(3-(4-((3-Carboxyazetidin-1-yl)methyl)phenyl)-1,2,4-oxadiazol-5-yl)-3-phenylisoxazole-4-carboxylic acid]	selective over S1P3
O=C(O)C1CN(Cc2ccc(-c3noc(-c4noc(-c5ccccc5)c4-c4ccccc4)n3)cc2)C1 [Example 17, 1-(4-(5-(4,5-diphenylisoxazol-3-yl)-1,2,4-oxadiazol-3-yl)benzyl)azetidine-3-carboxylic acid, 2,2,2-trifluoroacetic acid salt]	selective over S1P3
CCCc1c(-c2nc(-c3ccc(CN4CC(C(=O)O)C4)cc3)no2)noc1CC(C)C [Example 18, 1-(4-(5-(5-Isobutyl-4-propylisoxazol-3-yl)-1,2,4-oxadiazol-3-yl)benzyl)azetidine-3-carboxylic acid, TFA]	selective over S1P3
CCCc1onc(-c2nc(-c3ccc(CN4CC(C(=O)O)C4)cc3)no2)c1CC(C)C [Example 19, 1-(4-(5-(4-Isobutyl-5-propylisoxazol-3-yl)-1,2,4-oxadiazol-3-yl)benzyl)azetidine-3-carboxylic acid, TFA]	selective over S1P3
